Part of at least one peptide drawing is inferred or uncertain, most often the ends. Square brackets hold non-standard residues; d marks the D form. Peptide text beside a SMILES is read from it.
Key:
[1] = tested on: normal male Sprague-Dawley rats; assay: Insulin potentiating effects in normal rats (plasma glucose after i.p. glucose load); assay type: in vivo, rat; details: rats fasted 18 h, i.p. 1.0 ml 0.75M glucose + 15 mU insulin + 25 μg peptide, mean ± standard error
Description: A study was conducted to determine insulin potentiating effects of Peptide Nos. 3, 5, and 6. Also tested was a dipeptide NH2 -Ile-Pro-COOH, a dipeptide outside the scope of the invention. Test groups of 5 normal male Sprague-Dawley rats weighing about 200 grams were fasted for 18 hours and received (intraperitoneally in rapid succession) 1.0 ml of 0.75M glucose, and either 15 mU of insulin with 1% bovine serum ablumin in normal saline (pH 7.4) or a mixture of insulin as above with 25 μg Peptide Nos. 3, 5, 6 and dipeptide. Controls received only bovine serum albumin and saline. Blood was drawn after one hour and plasma glucose levels were determined.

db/db mice = assay: Insulin potentiating effects on genetically altered mice at differing ages (plasma glucose); assay type: in vivo, mouse; details: i.p. glucose + insulin 0.001 mU/10 g + peptide 5 μg/10 g
Description: A study was conducted to ascertain insulin potentiating effects of Peptide Nos. 6, 9 and 10 on db/db mice aged 8 weeks and 14 weeks.
Test groups of 5 each of db/db mice weighing from 40 to 60 grams each were used. Glucose was administered intraperitoneally at a dosage of […] of a solution containing 135 mg/ml glucose. Insulin was intraperitoneally administered at a dose of 0.001 mU/10 g and Peptide Nos. 6, 9 and 10 were each simultaneously administered at a dose of 5 μg/10 g.

Row | SMILES | Plasma Glucose (mg/dL at 60 min.), Glucose + Insulin + Peptide [1] [mg/dL] | Plasma Glucose (mg/dL at 60 min.), Age: 8 weeks, Glucose + Insulin + Peptide (db/db mice; db/db mice aged 8 weeks) [mg/dL] | Plasma Glucose (mg/dL at 60 min.), Age: 14 weeks, Glucose + Insulin + Peptide (db/db mice; db/db mice aged 14 weeks) [mg/dL]
1 | NCCCC[C@H](NC(=O)[C@H](CCC(N)=O)NC(=O)[C@H](CCC(=O)O)NC(=O)[C@H](CCCCN)NC(=O)[C@@H]1CCCN1)C(=O)O [Peptide No. 3, PRO--LYS--GLU--GLN--LYS] (H-PKEQK-OH) | 110 ± 6 | – | –
2 | CC(C)C[C@H](NC(=O)[C@H](Cc1ccccc1)NC(=O)[C@H](CO)NC(=O)[C@H](Cc1ccc(O)cc1)NC(=O)[C@@H](N)CCCCN)C(=O)N[C@@H](CCC(N)=O)C(=O)O [Peptide No. 5, LYS--TYR--SER--PHE--LEU--GLN] (H-KYSFLQ-OH) | 140 ± 19 | – | –
3 | CC[C@H](C)[C@H](NC(=O)[C@H](Cc1ccc(O)cc1)NC(=O)[C@H](C)NC(=O)[C@H](CCC(=O)O)NC(=O)[C@H](N)CCC(=O)O)C(=O)N1CCC[C@H]1C(=O)N[C@@H](CCCCN)C(=O)O [Peptide No. 10] (H-[dE]EAYIPK-OH) | – | 111 ± 24 | 246 ± 43
